No constants are given. Whether binding was seen depends on the method and setting. Binding seen in cells or lysates may run through a third protein. Some results given as binding are weak or reduced against the parent protein; the word gives no strength.
B1: SMAD2, Q15796 1-467 (protein)
chain: MSSILPFTPPVVKRLLGWKKSAGGSGGAGGGEQNGQEEKWCEKAVKSLVKKLKKTGRLDELEKAITTQNCNTKCVTIPSTCSEIWGLSTPNTIDQWDTTGLYSFSEQTRSLDGRLQVSHRKGLPHVIYCRLWRWPDLHSHHELKAIENCEYAFNLKKDEVCVNPYHYQRVETPVLPPVLVPRHTEILTELPPLDDYTHSIPENTNFPAGIEPQSNYIPETPPPGYISEDGETSDQQLNQSMDTGSPAELSPTTLSPVNHSLDLQPVTYSEPAFWCSIAYYELNQRVGETFHASQPSLTVDGFTDPSNSERFCLGLLSNVNRNATVEMTRRHIGRGVRLYYIGGEVFAECLSDSAIFVQSPNCNQRYGWHPATVCKIPPGCNLKIFNNQEFAALLAQSVNQGFEAVYQLTRMCTIRMSFVKGWGAEYRRQTVTSTPCWIELHLNGPLQWLDKVLTQMGSPSVRCSSMS
B2: SMAD3, P84022 1-425 (protein)
chain: MSSILPFTPPIVKRLLGWKKGEQNGQEEKWCEKAVKSLVKKLKKTGQLDELEKAITTQNVNTKCITIPRSLDGRLQVSHRKGLPHVIYCRLWRWPDLHSHHELRAMELCEFAFNMKKDEVCVNPYHYQRVETPVLPPVLVPRHTEIPAEFPPLDDYSHSIPENTNFPAGIEPQSNIPETPPPGYLSEDGETSDHQMNHSMDAGSPNLSPNPMSPAHNNLDLQPVTYCEPAFWCSISYYELNQRVGETFHASQPSMTVDGFTDPSNSERFCLGLLSNVNRNAAVELTRRHIGRGVRLYYIGGEVFAECLSDSAIFVQSPNCNQRYGWHPATVCKIPPGCNLKIFNNQEFAALLAQSVNQGFEAVYQLTRMCTIRMSFVKGWGAEYRRQTVTSTPCWIELHLNGPLQWLDKVLTQMGSPSIRCSSVS

Target: T1, SMAD4 (human (endogenous in HUVEC)), Q13485
T1 chain: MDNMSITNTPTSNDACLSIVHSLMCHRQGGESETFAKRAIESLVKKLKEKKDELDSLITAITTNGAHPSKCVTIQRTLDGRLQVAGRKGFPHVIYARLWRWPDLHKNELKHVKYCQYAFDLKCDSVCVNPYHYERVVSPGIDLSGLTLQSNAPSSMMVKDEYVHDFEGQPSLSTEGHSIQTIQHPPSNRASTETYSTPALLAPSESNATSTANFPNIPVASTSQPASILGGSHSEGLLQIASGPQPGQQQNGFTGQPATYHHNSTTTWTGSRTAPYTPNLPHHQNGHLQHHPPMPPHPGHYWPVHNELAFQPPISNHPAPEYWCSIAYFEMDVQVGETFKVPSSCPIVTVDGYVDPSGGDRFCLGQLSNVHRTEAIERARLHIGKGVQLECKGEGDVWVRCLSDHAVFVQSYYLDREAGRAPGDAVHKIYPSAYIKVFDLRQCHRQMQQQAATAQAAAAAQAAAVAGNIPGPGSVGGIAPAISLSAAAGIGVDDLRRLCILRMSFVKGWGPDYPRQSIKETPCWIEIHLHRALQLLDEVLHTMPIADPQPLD
Test: co-IP; SMAD4 complexes isolated with the Pierce Co-Immunoprecipitation Kit from HUVEC-FUCCI sorted into early G1 or late G1 and treated with control, TGF-β1 (1 ng/mL) or BMP4 (5 ng/mL) for 2 h; Western blot for SMAD proteins
Conditions: remark: other sources report otherwise

Binder	binding
B1	binds
B2	binds

— article PMC9537338
